The data set deals with T1, SACE_5754 (TetR family regulator) (UniProt A4FLL4).
T1 sequence (looked up): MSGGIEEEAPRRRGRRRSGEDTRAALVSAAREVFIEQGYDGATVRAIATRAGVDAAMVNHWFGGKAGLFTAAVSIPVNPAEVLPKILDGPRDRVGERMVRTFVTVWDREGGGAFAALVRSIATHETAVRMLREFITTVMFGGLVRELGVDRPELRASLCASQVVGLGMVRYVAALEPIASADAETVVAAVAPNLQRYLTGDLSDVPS
Nature of the data set: EMSA. The following applies: EMSA: 10 mM Tris pH 7.5, 5 mM MgCl2, 60 mM KCl, 10 mM DTT, 10% glycerol, 30 C 10 min, 20 uL; 6% native PAGE, 1x TAE; recombinant protein; residues 1-207; protein details: C-terminal His6 (pET22b); probe letters rebuilt from the primers and the genome. A general note: Mobility shift assays separate free from complexed probe on a gel.

Negatives hold for the conditions tested. Tags and fusion partners may be left off the protein sequences shown.

Consider “GATACGGCCGCCACGAGCAGCGGAACTACCAACAACAGCGGCGCGATGCGGATGACCAGCCGTTTCACGCGCTCACCCCCAGTCATGCAAACAATTTTCAGCTTGATCAACCTAACACCGGCGCGCGGTGCCGACACGGACTTTTCGGACGCCGCTCCTCGGCCGGACATCGCAGCGGAAAGCGCGATCCACAATGGACGCAACGGGAGTCGTAAACCGGCTGATGTGATCCAGGACACAAAGCTCGACGGGTTGGCCGCGGCGCCGCGCTCGTTATGATCTTCCTTGTGGGACTAGGCAAATGCCGCATATGCGGGAACCATGACCTCGAGTCCGTGCTGC (double strand) [PeryBI-BIII]”, for which the binding result was “no binding”.

These data come from publication PMC6346578.
